Test results from the supplement of paper PMC4604168 (melanoma cell lines).
The other results are listed elsewhere or left out. Single values are uncertain, as repeats are few or missing.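 The apoptosis fraction was the count of cleaved-PARP antibody-stained nuclei relative to all DNA-stained nuclei, imaged in 1,536-well plates. Screening doses were set so most cells survived, and baseline and induced cleaved-PARP levels vary greatly across cell lines.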

Columns and labels:
Test in all cases: cleaved PARP positive nuclei fraction relative to DMSO control; melanoma cells; higher = more apoptosis
Conditions in all cases: library dose: low library concentration; 72 h
501Mel = tested on: 501Mel
A101D = tested on: A101D
A2058 = tested on: A2058
A375 = tested on: A375
C32 = tested on: C32
CBRC008 = tested on: CBRC008 (line from a melanoma biopsy)
CBRC014 = tested on: CBRC014 (line from a melanoma biopsy)
CBRC016 = tested on: CBRC016 (line from a melanoma biopsy)
CBRC017 = tested on: CBRC017 (line from a melanoma biopsy)
CBRC034 = tested on: CBRC034 (line from a melanoma biopsy)
COLO792 = tested on: COLO792
COLO800 = tested on: COLO800
COLO829 = tested on: COLO829
G361 = tested on: G361
IPC-298 = tested on: IPC-298
IST-MEL1 = tested on: IST-MEL1
LB2518-MEL = tested on: LB2518-MEL
LOXIMVI = tested on: LOXIMVI
MEL-HO = tested on: MEL-HO

Structure (SMILES) | cleaved PARP positive nuclei fraction (501Mel) [%] | cleaved PARP positive nuclei fraction (A101D) [%] | cleaved PARP positive nuclei fraction (A2058) [%] | cleaved PARP positive nuclei fraction (A375) [%] | cleaved PARP positive nuclei fraction (C32) [%] | cleaved PARP positive nuclei fraction (CBRC008) [%] | cleaved PARP positive nuclei fraction (CBRC014) [%] | cleaved PARP positive nuclei fraction (CBRC016) [%] | cleaved PARP positive nuclei fraction (CBRC017) [%] | cleaved PARP positive nuclei fraction (CBRC034) [%] | cleaved PARP positive nuclei fraction (COLO792) [%] | cleaved PARP positive nuclei fraction (COLO800) [%] | cleaved PARP positive nuclei fraction (COLO829) [%] | cleaved PARP positive nuclei fraction (G361) [%] | cleaved PARP positive nuclei fraction (IPC-298) [%] | cleaved PARP positive nuclei fraction (IST-MEL1) [%] | cleaved PARP positive nuclei fraction (LB2518-MEL) [%] | cleaved PARP positive nuclei fraction (LOXIMVI) [%] | cleaved PARP positive nuclei fraction (MEL-HO) [%]
CN1CCN(c2ccc3nc(-c4c(N)c5c(F)cccc5[nH]c4=O)[nH]c3c2)CC1 [Dovitinib] + COCC[n+]1c2c(n(Cc3cnccn3)c1C)C(=O)c1ccccc1C2=O [YM155] (first compound 0.1 µM, partner dose 0.0004 µM) | 87.7 | 294 | 148 | 194 | 71.2 | 91.5 | 87.9 | 44 | 129 | 79.5 | 118 | 176 | 93.6 | 18.9 | 46.1 | 185 | 135 | 102 | 148
Nc1nc(F)nc2c1ncn2[C@@H]1O[C@H](CO)[C@@H](O)[C@@H]1O [fludarabine] + C=CCNC1=C2C[C@@H](C)C[C@H](OC)[C@H](O)[C@@H](C)/C=C(\C)[C@H](OC(N)=O)[C@@H](OC)/C=C\C=C(/C)C(=O)NC(=CC1=O)C2=O [Tanespimycin] (first compound 0.2 µM, partner dose 0.002 µM) | 14500 | 66.7 | 90.3 | 4410 | 41.8 | 92.6 | 111 | 69.5 | 201 | 33.8 | 103 | 76 | 104 | 172 | 93.6 | 22.5 | 67.3 | 90 | 88.2
Nc1ncn([C@H]2C[C@H](O)[C@@H](CO)O2)c(=O)n1 [decitabine] + C#Cc1cccc(Nc2ncnc3cc(OCCOC)c(OCCOC)cc23)c1 [erlotinib] (first compound 0.1 µM, partner dose 0.8 µM) | 82.1 | 102 | 122 | 98.2 | 66.1 | 110 | 102 | 263 | 95.8 | 49.4 | 149 | 89.3 | 116 | 82.7 | 271 | 134 | 70.4 | 68.9 | 177
Cn1c(=O)n(-c2ccc(C(C)(C)C#N)cc2)c2c3cc(-c4cnc5ccccc5c4)ccc3ncc21 + O=C1NC(=O)/C(=C/c2ccc(-c3ccc(F)cc3O)o2)S1 [AS252424] (first compound 0.004 µM, partner dose 1 µM) | 68.9 | 48.3 | 181 | – | 45 | 197 | 94.2 | 94 | 106 | – | 50 | 147 | 118 | 125 | 63.4 | 120 | 78.1 | 48 | –
Cn1c(=O)n(-c2ccc(C(C)(C)C#N)cc2)c2c3cc(-c4cnc5ccccc5c4)ccc3ncc21 + CCN(CC)CCCCNc1ncc2cc(-c3cc(OC)cc(OC)c3)c(NC(=O)NC(C)(C)C)nc2n1 [PD173074] (first compound 0.004 µM, partner dose 0.1 µM) | 84.9 | 9.3 | 115 | – | 154 | 90 | 95.2 | 71.6 | 178 | – | 194 | 197 | 90.8 | 125 | 44.1 | 76.7 | 66.9 | 165 | –
CS(=O)(=O)CCNCc1ccc(-c2ccc3ncnc(Nc4ccc(OCc5cccc(F)c5)c(Cl)c4)c3c2)o1 [lapatinib] + Oc1nc(-c2ccc(C(F)(F)F)cc2)nc2c1CSCC2 [XAV939] (first compound 0.8 µM, partner dose 2 µM) | 54.5 | 27.4 | 151 | – | 58.3 | 143 | 95.5 | 81.9 | 88.8 | – | 125 | 151 | 42 | 118 | 48.1 | 85.8 | 60.9 | 70 | –
CN1CCN(c2ccc3nc(-c4c(N)c5c(F)cccc5[nH]c4=O)[nH]c3c2)CC1 [Dovitinib] + N#Cc1c(O)c2c(-c3ccc(-c4ccccc4O)cc3)csc2[nH]c1=O [A769662] (first compound 0.1 µM, partner dose 2 µM) | 85.3 | 33.8 | 50.3 | – | 78.9 | 96.6 | 84.9 | 80.1 | 121 | – | 81.7 | 67.7 | 54.1 | 96.3 | 182 | 119 | 70.8 | 60 | –
Cn1c(=O)n(-c2ccc(C(C)(C)C#N)cc2)c2c3cc(-c4cnc5ccccc5c4)ccc3ncc21 + Cn1cc(/C=C2\C(=O)Nc3cccnc32)c2ccccc21 [GW441756] (first compound 0.004 µM, partner dose 0.4 µM) | 71 | 9.16 | 27.9 | – | 41.2 | 25.8 | 63 | 35.6 | 57.2 | – | 120 | 46.6 | 132 | 65.5 | 51 | 74.2 | 64.1 | 129 | –
CO[C@H]1C[C@@H]2CC[C@@H](C)[C@@](O)(O2)C(=O)C(=O)N2CCCC[C@H]2C(=O)O[C@H]([C@H](C)C[C@@H]2CC[C@@H](OCCO)[C@H](OC)C2)CC(=O)[C@H](C)/C=C(\C)[C@@H](O)[C@@H](OC)C(=O)[C@H](C)C[C@H](C)/C=C/C=C/C=C/1C [everolimus] + COC(=O)c1sccc1S(=O)(=O)Nc1ccc(Nc2ccccc2)cc1OC [GSK0660] (first compound 0.02 µM, partner dose 1 µM) | 225 | 76.5 | 155 | – | 37.3 | 328 | 111 | 26.2 | 90.8 | – | 273 | 65.3 | 66.3 | 124 | 28.7 | 109 | 89.2 | 105 | –
